PubChem BioAssay AID743121 | NCATS, 2013
The deposit covers about 26,000 reagents; below is an unselected part. 167 of them (0.63%) count as active. 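Calls are per gene from RSA p-values that are not deposited; an individual active-marked siRNA can sensitise only weakly.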 Reagents against one gene are numbered here. Not all columns of the deposit are shown. Reagent sequences are not shown.

Aim: 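Knock-downs that sensitise breast cancer cells to camptothecin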 (primary screen)
Cell system: MDA-MB-231 cells, a human breast cancer line
Knock-down reagent: single siRNA against human genes, 20 nM siRNA (0.8 pmol per well)
Duration: 120 h (drug added 48 h after transfection, read 72 h later)
Challenge: camptothecin 20 nM (about EC30) for 72 h; vehicle 0.1% DMSO in parallel plates
Detection: 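Cell viability by ATP luminescence (CellTiter-Glo) as % of non-targeting siRNA wells, and the log2 ratio of viability without drug over viability with camptothecin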
Reading the numbers: log2 vehicle/camptothecin viability: higher = stronger sensitisation to camptothecin
Hit rule: 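Each gene scored by redundant siRNA activity (RSA) over its individual siRNA ratios; a gene is called active at p < 0.001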

For TRAK2 #1, the values are log2 vehicle/camptothecin viability 0.00144; inactive.
Against TRAK2 #2, the entry reads log2 vehicle/camptothecin viability -0.0883; inactive.
After knock-down of TRAK2 #3, the record shows log2 vehicle/camptothecin viability -0.194; inactive.
After knock-down of TRAK2 #4, the screen gave log2 vehicle/camptothecin viability 0.0224; inactive.
CYP3A4 #1 gave log2 vehicle/camptothecin viability -0.475; inactive.
CYP3A4 #2 gave log2 vehicle/camptothecin viability -0.66; inactive.
CYP3A4 #3 gave log2 vehicle/camptothecin viability -0.162; inactive.
Silencing of CYP3A4 #4 resulted in: log2 vehicle/camptothecin viability -0.0731; inactive.
Against NME3 #1 the deposit lists log2 vehicle/camptothecin viability -0.359; inactive.
Against NME3 #2 the deposit lists log2 vehicle/camptothecin viability -0.0994; inactive.
With knock-down of NME3 #3 the results were log2 vehicle/camptothecin viability -0.00965; inactive.
Silencing of NME3 #4 came out at: log2 vehicle/camptothecin viability 0.165; inactive.
With knock-down of ITPR2 #1 the results were log2 vehicle/camptothecin viability -0.158; inactive.
Against ITPR2 #2, the entry reads log2 vehicle/camptothecin viability -0.12; inactive.
With knock-down of ITPR2 #3, the screen gave log2 vehicle/camptothecin viability -0.337; inactive.
Silencing of ITPR2 #4 resulted in: log2 vehicle/camptothecin viability -0.233; inactive.
ADRA2A #1 showed log2 vehicle/camptothecin viability -0.301; inactive.
ADRA2A #2 scored log2 vehicle/camptothecin viability -0.699; inactive.
With knock-down of ADRA2A #3, the record shows log2 vehicle/camptothecin viability -0.596; inactive.
ADRA2A #4 gave log2 vehicle/camptothecin viability -0.185; inactive.
Knock-down of FGF4 #1 resulted in: log2 vehicle/camptothecin viability 0.0495; inactive.
Knock-down of FGF4 #2 gave: log2 vehicle/camptothecin viability 0.142; inactive.
FGF4 #3 showed log2 vehicle/camptothecin viability -0.426; inactive.
FGF4 #4 gave log2 vehicle/camptothecin viability 0.56; inactive.
After knock-down of TENM4 #1, the screen gave log2 vehicle/camptothecin viability -0.216; inactive.
TENM4 #2 gave log2 vehicle/camptothecin viability -0.0743; inactive.
TENM4 #3 scored log2 vehicle/camptothecin viability -0.0239; inactive.
NPC1L1 #1 gave log2 vehicle/camptothecin viability -0.397; inactive.
With knock-down of NPC1L1 #2, the record shows log2 vehicle/camptothecin viability -0.00492; inactive.
After knock-down of NPC1L1 #3 the results were log2 vehicle/camptothecin viability -0.0216; inactive.
NPC1L1 #4 gave log2 vehicle/camptothecin viability -0.224; inactive.
Depletion of CDKN1C #1 gave: log2 vehicle/camptothecin viability -0.199; inactive.
With knock-down of CDKN1C #2 the results were log2 vehicle/camptothecin viability -0.282; inactive.
CDKN1C #3 gave log2 vehicle/camptothecin viability -0.668; inactive.
After knock-down of CDKN1C #4, the screen gave log2 vehicle/camptothecin viability 0.195; inactive.
Against HTR2C #1, the entry reads log2 vehicle/camptothecin viability -0.753; inactive.
Depletion of HTR2C #2 resulted in: log2 vehicle/camptothecin viability -0.242; inactive.
Silencing of HTR2C #3 gave: log2 vehicle/camptothecin viability -0.178; inactive.
With knock-down of HTR2C #4 the results were log2 vehicle/camptothecin viability 0.161; inactive.
Silencing of DEFA1 #1 gave: log2 vehicle/camptothecin viability -0.109; inactive.
Depletion of DEFA1 #2 gave: log2 vehicle/camptothecin viability 0.423; inactive.
Against DEFA1 #3, the values are log2 vehicle/camptothecin viability -0.254; inactive.
Knock-down of DEFA1 #4 came out at: log2 vehicle/camptothecin viability 0.0234; inactive.
Silencing of TAAR2 #1 came out at: log2 vehicle/camptothecin viability 1.54; inactive.
TAAR2 #2 showed log2 vehicle/camptothecin viability 0.109; inactive.
With knock-down of TAAR2 #3, the record shows log2 vehicle/camptothecin viability -0.0446; inactive.
Knock-down of TAAR2 #4 resulted in: log2 vehicle/camptothecin viability -0.0386; inactive.

Laid out differently: entries from further up.
DEFA1 #2
- log2 vehicle/camptothecin viability: 0.423
- Call: inactive

DEFA1 #3
- log2 vehicle/camptothecin viability: -0.254
- Call: inactive

DEFA1 #4
- log2 vehicle/camptothecin viability: 0.0234
- Call: inactive

TAAR2 #1
- log2 vehicle/camptothecin viability: 1.54
- Call: inactive

TAAR2 #2
- log2 vehicle/camptothecin viability: 0.109
- Call: inactive
